Data as given in PubChem BioAssay AID493246 (Drosophila RNAi Screening Center, 2011)

Screen: 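Identify essential fly genes by loss of cell viability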 (primary screen)
Cell system: Drosophila Kc and S2R+ cells
Reagents: long dsRNA against Drosophila genes
Read-out: 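Raw, unnormalised count of remaining cells in each well; per-plate z-scores of cell number underlie the calls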
Scale: Kc cell number and S2R+ cell number: higher = more cells remaining
Hit rule: 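Counted as a hit if cell number falls by a z-score of at least 3 within its plate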
The screen tested about 21,000 reagents; below is a random part of those that have a named target and a result. Of all reagents, 429 (2%) got an active call. 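Values are raw and not normalised between plates; calls rest on per-plate z-scores that were not deposited.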 Entries without a mark were called inactive. A plus sign joins genes that one reagent is predicted to hit. Not given: the amount of reagent, the time to read-out.

The opening 5 entries, ahead of the listing:
| Target gene | dsRNA | Kc cell number, rep 1 | Kc cell number, rep 2 | S2R+ cell number, rep 1 | S2R+ cell number, rep 2 |
| --- | --- | --- | --- | --- | --- |
| CG42534 | DRSC14722 | 1.54e6 | 1.58e6 | 9.67e5 | 1.05e6 |
| CG42534 | DRSC14759 | 1.62e6 | 1.68e6 | 8.46e5 | 9.41e5 |
| CG42534 | DRSC16072 | 1.58e6 | 1.60e6 | 1.05e6 | 1.21e6 |
| Nipped-A | DRSC04882 | 1.54e6 | 1.60e6 | 1.06e6 | 1.17e6 |
| Nipped-A | DRSC04883 | 1.44e6 | 1.59e6 | 1.28e6 | 1.48e6 |

The list itself, from the first entry:
| Target gene | dsRNA | Kc cell number, rep 1 | Kc cell number, rep 2 | S2R+ cell number, rep 1 | S2R+ cell number, rep 2 |
| --- | --- | --- | --- | --- | --- |
| CG42534 | DRSC14722 | 1.54e6 | 1.58e6 | 9.67e5 | 1.05e6 |
| CG42534 | DRSC14759 | 1.62e6 | 1.68e6 | 8.46e5 | 9.41e5 |
| CG42534 | DRSC16072 | 1.58e6 | 1.60e6 | 1.05e6 | 1.21e6 |
| Nipped-A | DRSC04882 | 1.54e6 | 1.60e6 | 1.06e6 | 1.17e6 |
| Nipped-A | DRSC04883 | 1.44e6 | 1.59e6 | 1.28e6 | 1.48e6 |
| Nipped-A | DRSC04884 | 1.49e6 | 1.48e6 | 1.11e6 | 1.19e6 |
| Nipped-A | DRSC07738 | 1.39e6 | 1.28e6 | 9.44e5 | 1.10e6 |
| Kebab (Kinetochore and EB1 associated basic protein) | DRSC00827 | 1.44e6 | 1.40e6 | 8.23e5 | 9.23e5 |
| CG45105 | DRSC15002 | 1.28e6 | 1.23e6 | 8.84e5 | 1.02e6 |
| CG45105 | DRSC15833 | 1.22e6 | 1.21e6 | 8.47e5 | 9.50e5 |
| osi (orsai) | DRSC02931 | 1.63e6 | 1.80e6 | 1.18e6 | 1.31e6 |
| CG31642 | DRSC02919 | 1.28e6 | 1.70e6 | 5.07e5 | 3.21e5 |
| CG17562 | DRSC15243 | 1.47e6 | 1.52e6 | 1.09e6 | 1.30e6 |
| Obp28a (Odorant-binding protein 28a) | DRSC03394 | 1.76e6 | 1.92e6 | 1.16e6 | 1.28e6 |
| CG1965 | DRSC12577 | 1.50e6 | 1.57e6 | 1.14e6 | 1.19e6 |
| Blm + CG14721 | DRSC14943 | 1.40e6 | 1.50e6 | 1.24e6 | 1.38e6 |
| Or67d (Odorant receptor 67d) | DRSC10158 | 1.62e6 | 1.74e6 | 1.20e6 | 1.32e6 |
| CG33966 | DRSC08256 | 1.54e6 | 1.29e6 | 9.95e5 | 1.17e6 |
| CG13720 | DRSC08329 | 1.47e6 | 1.34e6 | 1.07e6 | 1.14e6 |
| Ir56b (Ionotropic receptor 56b) | DRSC06543 | 1.47e6 | 1.53e6 | 1.05e6 | 1.26e6 |
| a (arc) | DRSC04667 | 1.23e6 | 1.33e6 | 8.46e5 | 3.40e5 |
| a (arc) | DRSC04668 | 1.55e6 | 1.72e6 | 1.32e6 | 3.51e5 |
| VGlut (Vesicular glutamate transporter) | DRSC00733 | 1.34e6 | 1.27e6 | 9.79e5 | 1.14e6 |
| CG4631 | DRSC02766 | 1.50e6 | 1.53e6 | 1.11e6 | 1.20e6 |
| tkv + CR14033 + tRNA:Asp-GTC-2-1 + 1 more | DRSC00861 | 1.35e6 | 1.32e6 | 9.60e5 | 1.13e6 |
| CG2162 | DRSC08557 | 8.54e5 (active) | 9.31e5 | 9.40e5 | 4.39e5 |
| TfIIFalpha (Transcription factor IIFalpha) | DRSC12608 | 1.76e6 | 1.95e6 | 1.36e6 | 1.47e6 |
| CG34248 | DRSC09426 | 1.41e6 | 1.50e6 | 1.08e6 | 1.28e6 |
| CG32809 | DRSC18507 | 1.70e6 | 1.72e6 | 1.11e6 | 1.18e6 |
| CG32809 | DRSC18562 | 1.51e6 | 1.49e6 | 1.05e6 | 1.19e6 |
| CG32809 | DRSC18592 | 4.71e5 | – | 7.44e5 | – |
| CG9784 | DRSC20210 | 1.46e6 | 1.40e6 | 1.07e6 | 1.14e6 |
| His3.3A (Histone H3.3A) | DRSC03343 | 1.14e6 (active) | 1.12e6 | 6.23e5 | 7.51e5 |
| side (sidestep) | DRSC14523 | 1.30e6 | 1.24e6 | 1.04e6 | 1.10e6 |
| side (sidestep) | DRSC14716 | 1.50e6 | 1.57e6 | 1.11e6 | 1.15e6 |
| side (sidestep) | DRSC14717 | 1.53e6 | 1.59e6 | 1.08e6 | 1.15e6 |
| side (sidestep) | DRSC14718 | 1.48e6 | 1.60e6 | 1.09e6 | 1.18e6 |
| side (sidestep) | DRSC14721 | 1.53e6 | 1.61e6 | 1.10e6 | 1.21e6 |
| Spn27A (Serpin 27A) | DRSC03608 | 1.46e6 | 1.34e6 | 1.15e6 | 1.27e6 |
| CG3014 | DRSC15458 | 1.43e6 | 1.55e6 | 1.23e6 | 1.30e6 |
| CG9890 | DRSC04590 | 1.59e6 | 1.65e6 | 1.37e6 | 1.50e6 |
| ND-B8 (NADH dehydrogenase (ubiquinone) B8 subunit) | DRSC00449 | 1.52e6 | 1.49e6 | 1.19e6 | 1.29e6 |
| CG8209 | DRSC10970 | 1.36e6 | 1.30e6 | 1.18e6 | 1.23e6 |
| CG4278 | DRSC02741 | 1.37e6 | 1.41e6 | 1.38e6 | 1.40e6 |
| et (eye transformer) | DRSC19582 | 1.65e6 | 1.72e6 | 1.18e6 | 1.32e6 |
| CG14421 | DRSC17918 | 1.75e6 | 1.80e6 | 1.11e6 | 1.26e6 |
| CG16772 | DRSC02516 | 1.58e6 | 1.65e6 | 1.24e6 | 2.63e5 |
| Prestin | DRSC10507 | 1.13e6 | 1.21e6 | 1.08e6 | 1.19e6 |
| fz4 (frizzled 4) | DRSC18780 | 1.55e6 | 1.52e6 | 1.05e6 | 1.16e6 |
| plu (plutonium) | DRSC07665 | 1.64e6 | 1.66e6 | 1.16e6 | 1.29e6 |
| GlcT (Glucosylceramide synthase) | DRSC04525 | 1.14e6 | 1.24e6 | 1.09e6 | 1.06e6 |
| ref(2)P (refractory to sigma P) | DRSC03601 | 1.72e6 | 1.87e6 | 1.42e6 | 4.25e5 |
| Parp16 (Poly(ADP-ribose) polymerase 16) | DRSC06597 | 1.56e6 | 1.60e6 | 1.12e6 | 1.27e6 |
| CG14422 | DRSC17919 | 1.74e6 | 1.75e6 | 1.04e6 | 1.23e6 |
| Hsp70Aa + Hsp70Ab | DRSC21246 | 1.48e6 | 1.47e6 | 7.57e5 | 8.57e5 |
| GstE7 (Glutathione S transferase E7) | DRSC06677 | 1.44e6 | 1.48e6 | 1.27e6 | 1.26e6 |
| dpr19 (defective proboscis extension response 19) | DRSC02237 | 1.51e6 | 1.73e6 | 1.34e6 | 1.49e6 |
| CG42323 | DRSC19629 | 1.60e6 | 1.64e6 | 1.15e6 | 1.25e6 |
| CG8065 | DRSC10959 | 1.43e6 | 1.35e6 | 1.33e6 | 1.36e6 |
